{"source": "patent US11740235B2", "about": "“Model-membrane-based lipid transfer assays and methods” (Regents of the University of Minnesota, priority 2019, dated 2023)", "origin": "cited, not measured here", "conditions": "cited from earlier work", "note": "For at least one compound, name, drawing or mass did not settle the structure.", "data": [{"smiles": "CCCCCC(=O)OC[C@H](COP(=O)([O-])OCC[N+](C)(C)C)OC(=O)CCCCC", "note": "[DHPC, 1,2-hexanoyl-sn-glycero-3-phosphocholine]", "values": [{"measurement": "critical micelle concentration (cmc)", "value": 14, "unit": "mM"}]}]}
